This is an account of results in publication PMC7819943, “Rice protein-binding microarrays: a tool to detect cis-acting elements near promoter regions in rice”.

Protein sequences, listed by entry. Tags and fused reporters are not part of them.
UniProt Q0JBA9, entry or part of it: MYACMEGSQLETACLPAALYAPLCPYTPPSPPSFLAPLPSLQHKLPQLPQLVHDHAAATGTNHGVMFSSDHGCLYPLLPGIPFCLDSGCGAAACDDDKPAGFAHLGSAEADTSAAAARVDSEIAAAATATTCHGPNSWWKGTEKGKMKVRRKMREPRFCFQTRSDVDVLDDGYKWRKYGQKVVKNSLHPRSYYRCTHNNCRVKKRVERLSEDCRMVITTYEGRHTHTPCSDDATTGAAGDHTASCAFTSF

The other results are listed elsewhere or left out.

The target of the test is OsWRKY34 (Oryza sativa, UniProt Q0JBA9 1-250). The experiment in a line: protein-binding microarray (RPBM); PBS, 2% BSA, 51.3 ng/ul salmon testes DNA, 50 uM zinc acetate, 200 nM TF, 25 C, 1 h; high values mean tight binding. The conditions noted are these: protein: recombinant; tags: N-terminal polyhistidine and DsRed monomer fusion (pET32a); label: CyDye5-dUTP incorporated in the synthesized complementary strand; 3' TTTTT single-stranded linker to array surface; dsDNA, one strand shown. Put shortly: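 Binding signal here means per-feature fluorescence intensity in arbitrary units. The values were read on an Axon 4000B scanner after a custom Agilent array, double-stranded by primer extension with Cy5-dUTP, was incubated with 200 nM protein at 25 °C for 1 h in PBS with 2% BSA, salmon testes DNA and 50 µM zinc acetate, then washed. The proteins were transcription factors with an N-terminal polyhistidine tag and DsRed, expressed in E. coli BL21-CodonPlus and purified on Ni–NTA.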
Turning to “CGTCTTTTGACATATGGCGCACGCACCTCTCCTCGCTTTTCGGAGTCACCTAGTGCAG”, the binding signal was 9130 fluorescence intensity (a.u.).
For “TAGTACACTACAGGCTACTACTACTACTACTACTACACCACGGAGTCACCTAGTGCAG”, the binding signal is 8250 fluorescence intensity (a.u.).
Turning to “CTTTCGATTCCAAATTTCTCAGCTATTTCACGCATGCCCTCGGAGTCACCTAGTGCAG”, the binding signal was 9210 fluorescence intensity (a.u.).
The same measure for “CTTTTTTCTATTCCTATCTTTTTTTCTATTCCATTGTTTTCGGAGTCACCTAGTGCAG”: 10000 fluorescence intensity (a.u.); for “TGCAACTATGATTATCCGTATCCAACTTTGATTTTCCGTTCGGAGTCACCTAGTGCAG”: 8860 fluorescence intensity (a.u.).
With “CGGGCTTCTTGATTTGCGGATTGTTGTTGTGGATCGCCAGCGGAGTCACCTAGTGCAG”, the binding signal was 8330 fluorescence intensity (a.u.).
The same measure for “ATCTGAAACTGTGTTGGTTGAACTAGCTGCTCTTCTATTTCGGAGTCACCTAGTGCAG”: 8650 fluorescence intensity (a.u.); for “CGCCGCCGCTCGCCGACGTCGCCGCCATCGCCATTACAGCCGGAGTCACCTAGTGCAG”: 8980 fluorescence intensity (a.u.).
Turning to “TTGGGCGGAGGAGTTCTGGGGTGGCATCGAAGGTGTGGGACGGAGTCACCTAGTGCAG”, the binding signal was 10500 fluorescence intensity (a.u.).
For “CCCTGCCTCATGGGCCCCACCTGCCATTAACTTTTTCGTTCGGAGTCACCTAGTGCAG”, the binding signal is 9190 fluorescence intensity (a.u.).
Regarding “AGCTCAATTTAGTCTTTCAGGTTTTATTTTGTCCACGTAGCGGAGTCACCTAGTGCAG”, the binding signal is 9650 fluorescence intensity (a.u.).
Turning to “AACCCTGACAATTTCCTTAGCGGTTTTGAGAGTGTTTTTCCGGAGTCACCTAGTGCAG”, the binding signal is 9910 fluorescence intensity (a.u.).
With “TATAAATACACCTCGCCCGCGCCTTAACTCGCATCATCAACGGAGTCACCTAGTGCAG”, the binding signal is 9140 fluorescence intensity (a.u.).
Turning to “TTCCAACTTTCCCCAAACTTTCAACTTTCTGTAGGAACTACGGAGTCACCTAGTGCAG”, the binding signal is 8940 fluorescence intensity (a.u.).
As to “GAGCTCCGCGTTCCACTCCATGTCCTCGATCTCCACCTCGCGGAGTCACCTAGTGCAG”, the binding signal was 9900 fluorescence intensity (a.u.).
With “CCGATTCCCTGCCGCATCTGCCCGTTGCCCTCGCGCCCGGCGGAGTCACCTAGTGCAG”, the binding signal was 8880 fluorescence intensity (a.u.).
On to “CTCTCCATGCATCTCACCTCCACAGCGACCCACCACCCTTCGGAGTCACCTAGTGCAG”, for which the binding signal is 9380 fluorescence intensity (a.u.).
Turning to “TGCAACTCAAAACTCACTCGATCGATCGCTTACAAGCTACCGGAGTCACCTAGTGCAG”, the binding signal is 8750 fluorescence intensity (a.u.).
In the case of “CTTGTGTGTTTCCATTCTCGCGAACCTTCCACACACAGACCGGAGTCACCTAGTGCAG” it was 11700 fluorescence intensity (a.u.); in that of “GCGTTACTTCTCTCTGAGTCATTTGAGCCTTGTGAGTATTCGGAGTCACCTAGTGCAG”, 8220 fluorescence intensity (a.u.); in that of “CGCCACCTCCCCTCCGCAAACCAGCGGGCGTCGCCGCTTCCGGAGTCACCTAGTGCAG”, 8320 fluorescence intensity (a.u.).
For the sequence “GCAGCTCACACACAACCTCTTCAATACTCTCACTGCAATTCGGAGTCACCTAGTGCAG”, the binding signal is 10700 fluorescence intensity (a.u.).
For “ATTTAATTTCACCTACTACTACTACTATTCTTCTTATTAACGGAGTCACCTAGTGCAG”, the binding signal was 9430 fluorescence intensity (a.u.).
